Assay results as given in publication PMC11003095.
No constants are given. Whether binding was seen depends on the method and setting. In cells and extracts the contact can be indirect. Some binding calls cover weakened binding; strength is not graded here.

Amino acid sequences for entries named in this document (tags omitted). Residues count along the entry.
UniProt P35968, residues 20-1356: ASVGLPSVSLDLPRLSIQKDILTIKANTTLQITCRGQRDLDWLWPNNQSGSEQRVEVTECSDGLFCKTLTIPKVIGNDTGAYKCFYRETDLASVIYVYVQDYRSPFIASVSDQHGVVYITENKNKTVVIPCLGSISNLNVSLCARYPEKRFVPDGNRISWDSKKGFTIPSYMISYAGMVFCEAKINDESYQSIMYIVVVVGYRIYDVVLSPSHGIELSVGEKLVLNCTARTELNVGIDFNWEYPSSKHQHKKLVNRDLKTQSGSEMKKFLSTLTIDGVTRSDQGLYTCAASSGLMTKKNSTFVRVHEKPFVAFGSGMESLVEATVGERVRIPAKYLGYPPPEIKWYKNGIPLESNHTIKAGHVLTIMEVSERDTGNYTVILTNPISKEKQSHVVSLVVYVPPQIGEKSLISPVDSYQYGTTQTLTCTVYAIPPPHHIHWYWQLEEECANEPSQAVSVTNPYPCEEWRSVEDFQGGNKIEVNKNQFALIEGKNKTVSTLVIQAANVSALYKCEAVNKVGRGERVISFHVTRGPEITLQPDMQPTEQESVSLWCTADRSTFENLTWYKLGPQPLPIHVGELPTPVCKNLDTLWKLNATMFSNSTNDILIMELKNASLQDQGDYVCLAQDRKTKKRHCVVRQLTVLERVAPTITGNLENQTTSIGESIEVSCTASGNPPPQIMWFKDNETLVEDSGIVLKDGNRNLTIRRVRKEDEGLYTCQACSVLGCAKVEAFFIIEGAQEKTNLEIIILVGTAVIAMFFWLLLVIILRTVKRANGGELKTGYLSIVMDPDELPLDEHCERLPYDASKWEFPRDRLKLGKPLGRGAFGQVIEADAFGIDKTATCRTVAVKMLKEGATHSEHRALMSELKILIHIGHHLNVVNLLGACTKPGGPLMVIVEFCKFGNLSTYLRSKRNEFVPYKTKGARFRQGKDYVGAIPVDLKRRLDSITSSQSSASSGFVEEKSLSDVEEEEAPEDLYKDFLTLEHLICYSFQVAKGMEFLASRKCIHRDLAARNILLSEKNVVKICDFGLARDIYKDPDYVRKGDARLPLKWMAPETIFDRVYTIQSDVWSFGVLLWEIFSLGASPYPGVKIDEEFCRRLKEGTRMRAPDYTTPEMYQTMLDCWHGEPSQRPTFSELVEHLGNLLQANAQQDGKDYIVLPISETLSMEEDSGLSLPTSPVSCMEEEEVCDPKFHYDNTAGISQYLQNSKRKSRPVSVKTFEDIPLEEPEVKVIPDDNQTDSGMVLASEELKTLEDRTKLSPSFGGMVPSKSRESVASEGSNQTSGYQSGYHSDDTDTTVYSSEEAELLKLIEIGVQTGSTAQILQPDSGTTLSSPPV
UniProt P30559: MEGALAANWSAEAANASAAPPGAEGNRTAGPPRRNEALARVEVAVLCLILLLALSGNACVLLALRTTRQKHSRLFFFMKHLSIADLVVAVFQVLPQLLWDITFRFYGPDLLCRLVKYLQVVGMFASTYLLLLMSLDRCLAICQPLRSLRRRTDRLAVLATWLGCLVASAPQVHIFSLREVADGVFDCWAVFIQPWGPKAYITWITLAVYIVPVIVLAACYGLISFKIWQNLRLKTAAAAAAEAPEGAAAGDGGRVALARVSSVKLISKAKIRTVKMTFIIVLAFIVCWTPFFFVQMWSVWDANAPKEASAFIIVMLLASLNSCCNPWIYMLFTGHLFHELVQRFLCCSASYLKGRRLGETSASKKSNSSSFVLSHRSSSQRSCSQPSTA
UniProt P37288: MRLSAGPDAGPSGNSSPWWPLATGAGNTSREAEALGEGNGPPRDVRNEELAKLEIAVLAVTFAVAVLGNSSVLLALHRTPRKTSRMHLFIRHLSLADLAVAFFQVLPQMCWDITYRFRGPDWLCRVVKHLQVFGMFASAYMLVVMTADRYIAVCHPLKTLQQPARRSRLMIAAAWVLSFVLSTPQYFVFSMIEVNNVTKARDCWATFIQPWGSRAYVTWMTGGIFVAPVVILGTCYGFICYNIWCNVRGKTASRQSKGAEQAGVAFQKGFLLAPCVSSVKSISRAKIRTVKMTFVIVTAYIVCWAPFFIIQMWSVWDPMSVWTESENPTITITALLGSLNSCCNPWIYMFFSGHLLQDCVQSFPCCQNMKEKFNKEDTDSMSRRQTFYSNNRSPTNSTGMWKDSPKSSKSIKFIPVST

Legend:
Experiment in all cases: co-IP; 3 mg ASB-14-extracted placental membranes mixed overnight at 6-8 C with Dynabeads M-280 charged with VEGFR2, MDMX or PICALM antibody; washed in buffer with 1% ASB-14; eluted with SDS-DTT at 95 C; eluates probed by western blot
[1] = target: T1, Double minute 4 protein (human (endogenous in placenta)) (UniProt O15151)
T1 sequence: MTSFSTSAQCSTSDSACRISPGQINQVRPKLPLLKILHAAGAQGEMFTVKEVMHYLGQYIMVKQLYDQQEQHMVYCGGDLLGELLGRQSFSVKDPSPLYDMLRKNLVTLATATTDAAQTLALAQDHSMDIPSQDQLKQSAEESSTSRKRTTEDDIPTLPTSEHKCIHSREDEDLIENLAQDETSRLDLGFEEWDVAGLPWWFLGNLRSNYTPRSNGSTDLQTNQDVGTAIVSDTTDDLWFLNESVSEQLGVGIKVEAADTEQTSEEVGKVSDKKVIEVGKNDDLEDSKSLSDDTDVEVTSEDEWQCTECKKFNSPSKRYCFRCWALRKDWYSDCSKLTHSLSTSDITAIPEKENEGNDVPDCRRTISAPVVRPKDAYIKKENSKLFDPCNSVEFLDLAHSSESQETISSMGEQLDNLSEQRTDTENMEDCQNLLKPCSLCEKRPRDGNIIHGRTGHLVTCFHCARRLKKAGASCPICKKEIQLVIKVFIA

[2] = target: T2, Phosphatidylinositol-binding clathrin assembly protein (human (endogenous in placenta)) (UniProt Q13492)
T2 sequence: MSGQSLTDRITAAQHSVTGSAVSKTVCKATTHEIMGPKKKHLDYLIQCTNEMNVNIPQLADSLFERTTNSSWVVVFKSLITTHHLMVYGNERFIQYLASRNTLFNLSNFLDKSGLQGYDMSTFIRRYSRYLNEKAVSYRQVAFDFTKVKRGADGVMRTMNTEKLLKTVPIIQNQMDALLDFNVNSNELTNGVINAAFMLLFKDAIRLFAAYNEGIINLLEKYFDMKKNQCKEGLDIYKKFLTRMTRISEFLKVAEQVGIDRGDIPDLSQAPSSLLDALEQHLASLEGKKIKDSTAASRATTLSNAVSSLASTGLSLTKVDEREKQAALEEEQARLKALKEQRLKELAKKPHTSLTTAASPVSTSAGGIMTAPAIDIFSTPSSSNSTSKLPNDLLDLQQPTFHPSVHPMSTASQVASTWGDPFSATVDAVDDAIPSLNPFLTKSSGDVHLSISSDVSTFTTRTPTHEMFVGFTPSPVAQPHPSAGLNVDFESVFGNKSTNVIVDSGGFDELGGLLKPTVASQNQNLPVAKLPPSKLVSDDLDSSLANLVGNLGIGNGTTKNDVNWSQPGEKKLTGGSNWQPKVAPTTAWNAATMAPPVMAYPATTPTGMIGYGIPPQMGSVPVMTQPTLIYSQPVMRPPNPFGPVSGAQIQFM

[3] = target: Vascular endothelial growth factor receptor 2 (human (endogenous in placenta)) (UniProt P35968)

Row | binding [1] | binding [2] | binding [3] | Substance
1 | binds | binds | no binding | oxytocin receptor (from UniProt P30559 1-389)
2 | binds | binds | no binding | vasopressin V1aR receptor (from UniProt P37288 1-418)
